No constants are given. Whether binding was seen depends on the method and setting. Some results given as binding are weak or reduced against the parent protein; the word gives no strength.
Target: EphA2-Fc, fusion protein consisting of the extracellular domain of EphA2 linked to human IgG1 constant region (human) (UniProt P29317)
Assay: ELISA, biotinylated EA2 on EphA2-Fc captured by immobilized Ephrin A1-Fc

Amino acid sequences for entries named in this document (tags omitted). Residues count along the entry.
UniProt P29317, residues 24-537: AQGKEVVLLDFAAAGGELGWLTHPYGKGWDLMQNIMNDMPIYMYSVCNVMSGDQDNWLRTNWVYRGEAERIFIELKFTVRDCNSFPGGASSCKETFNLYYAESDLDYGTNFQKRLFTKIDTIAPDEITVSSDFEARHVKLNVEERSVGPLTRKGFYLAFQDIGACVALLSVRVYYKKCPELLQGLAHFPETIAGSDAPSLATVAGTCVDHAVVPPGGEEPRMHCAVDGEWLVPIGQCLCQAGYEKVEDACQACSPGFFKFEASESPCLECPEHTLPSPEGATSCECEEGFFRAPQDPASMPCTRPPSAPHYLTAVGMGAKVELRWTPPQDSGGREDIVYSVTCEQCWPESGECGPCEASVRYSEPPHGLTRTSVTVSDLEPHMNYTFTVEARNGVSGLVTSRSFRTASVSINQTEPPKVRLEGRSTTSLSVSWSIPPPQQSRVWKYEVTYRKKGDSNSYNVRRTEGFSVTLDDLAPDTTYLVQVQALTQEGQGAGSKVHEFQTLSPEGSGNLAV

B1: EA2 anti-EphA2 monoclonal antibody (antibody, V domains shown)
VH: DVKLVESGGGLVKPGGSLKLSCAASGFTFSSYTMSWVRQTPEKRLEWVATISSGGTYTYYPDSVKGRFTISRDNAKNTLYLQMSSLKSEDTAMYYCTREAIFTYWGQGTLVTVSA
VL: DIKMTQSPSSMYASLGERVTITCKASQDINNYLSWFQQKPGKSPKTLIYRANRLVDGVPSRFSGSGSGQDYSLTISSLEYEDMGIYYCLKYDEFPYTFGGGTKLEIK
- binding: binds

Source: patent publication US20040091486A1
